The record followed here is doi:10.1101/2022.05.10.491326.

No constants are given. Whether binding was seen depends on the method and setting. In cells and extracts the contact can be indirect. These calls come from enrichment with a bait or labelling near it, and not all partners need be listed. For part of these data: No binding means not detected with the bait.

Common to all, as to assay: affinity purification with mass spectrometry
For test [1], the target named is EIF4E5-PTP (Trypanosoma brucei) (UniProt Q38B99).
The target of test [2] is EIF4E3-PTP (Trypanosoma brucei) (UniProt Q383A4).
For test [3], the target named is EIF4E6-PTP (Trypanosoma brucei) (UniProt Q57V43).

B1: an IMP dehydrogenase (enzyme, UniProt P50098 1-512)
chain: MENTNLRTKTLRDGTTAEELFSQDGLSFNDFIILPGFIDFDSSKVNVSGQFTKNILLHLPLVSSPMDTVTESSMARAMALMGGIGVIHNNCTVEQQARMVRSVKLYRNGFIMKPKSVSPDVPVSTIRNIKSEKGISGILVTEGGKYDGKLLGIVCTKDIDFVKDASAPVSQYMTRRENMTVERYPIKLEEAMDVLNRSRHGYLPVLNDKDEVVCLCSRRDAVRARDYPNSSLDRNGHLLCAAATSTREADKGRVAALSEAGIDVLVLDSSQGNTIYQVSFIRWVKKTYPHLEVVAGNVVTQDQAKNLIDAGADSLRIGMGSGSICITQEVLACGRPQATAIYKVARYAASRGVPCVADGGLRNVGDVCKALAVGANVAMLGSMIAGTSETPGEYFFKDGMRLKGYRGMGSIDAMLQGRESGKRYLSENETLQVAQGVAGAVLDKGSVLKLLAYIHKGLQQSAQDIGEVSFDAIREKVYEGQVLFNRRTLTAQSEGAVHSLHHYERKLFASKL
On to B1, for which the binding result in test [1] and in test [2] was “binds” throughout.

B2: PBP1 (protein, UniProt Q57UZ7 1-550)
chain: MEGSHSSNMERLEYLYLNLVGQVVQVRLVDDMCVEGLFVACTDVDAETDAGIMICCTRNLASAKRSPLSPSCVNFTDDLFIPYQSIVMIEVQNAKIRTETPGRPDTGRADFSATKFDWADDGVSELLESEPHQTGTWNQFEANEKSFGVKTTYKEEFYTTRLDHSKITEEQRAQADRLAREIESSSTRGIAHRMEREECLHDDEGLDEGQLYSDVHRPQEKKPPYVPPSTGGRKLVNEPPPVPAAAAPATAPTTAPAAAPAPAAAPPAAAPAAAAPPPPPAATSMADDGSMRHKRMNEDPHHMQYDANQTAAGFNPAAAPYTPMKPGAAVPVVDFLASLADAISNNDMCYDCEPHWPGMCNLFYDQDDSSYSQQNYEAAAMPPSHSMNMHMYVNSQPNIPNAHRGYQGPLGRVPHNQSMPMHHMQGQGFHHEMHHHQAFHGMGNYSSQHHNPPIQEYAPHKGQQGVVSRPGMRQGKGGGASRVEPQQPVSANTASSPPPVPTVDSAPNEVKPPAKLQRGRGMAAFTKGDMDGDSGATTNATGGPKKRVGK
For the molecule B2, the binding entry in test [3] is reported as “binds”.

B3: PUF1 (protein, UniProt Q962F5 1-572)
chain: MSSDEETITTLYLRRQNILKQLSEVNNEIRTAEQQINEKSNNNETRRVEELVVKFGGDDDRESYLLDFCMRDANGLREAIRYVDALKALKECTSDDEVNRKKHLSRNTFVHAMIARSGELMVDANGSELIQHALGMLKSGGKVAPVLYSTDYIAASESDLSEFLLLLEVLKDKIPQICCDTNGSRAMQKVFDSLKSLEEVEFSAQCFSECIIELCKDIDGNHAVSRLLAAARGTPLWESGAAGDDSSSKLAHIHQLLYGKFPESCVDVCGNRHGCCVIQKCLQWAPEPYFSTLMDTIVHDTIKLVHDPFGNYVIQFILDHEQELSQRSSTGSEGADYTNRIIRQMLHNVAALSCNKFCSNVIEKCLKSATPDVRQLLVDELTDPQILPKLLTDSFANYVIQTAIVTSTEEKQFTQLRDSIMPLQRMLKNSPHGVKVESKLVRQQRELARKNGNQKNKKRWAQPAPQVMEKGMHEGFIGTHILPGMAGIPTIVGTDEFGGPALSLPGVAKEAVPIMTPTQYMPLMLPGQQTLIGLPQGYPQQQFPMDIMKGGNIWDPQQGFTLLHHPESKKGT
As to B3, the binding result in test [1] was “no binding”.

B4: MKT1 (protein, UniProt Q587E3 1-735)
chain: MYPRHDDVSLFQRFVNDHKLEEKGLPLYQLAQLEGTDQVMLGVDGTKIIDMITQAVREREKMAIYTYTTPYTVYEKINEFRTMFQSIKNCTPVFVFNGIQYSPDSAEEFGREKNVVPSEVAALTGTDSSRLSNTTNVRFAEIHKKTANRFVVEEDVEGQIIRIFRSEFKNTIRAPYLAWAQLSSFRHCNHRHISEVYGCLELLAFPGIDRVVTNINPTRGTFDVVYKARVLEAARLSEEDLSSLILVESRSRVMRTVTLKFSSLEDMIKKVVRYKGSTIGASFAQQLHEEAIRASEANRMRASNQRGAAFRNLSAFASPVLTLTPPHCLPLHFLYGIPGFPHADAESFVGLPLPPVLYYIMSAGLLSPSLFAAVSQETVVDDWPLVDSIKYRDVAETVLPLRVQTIYQLAWTMSRGLGSISWFRRYNVLPARVSKLHVPPAIQLDGWALHSVTVPRGLHLVDVMEFAHLACSVDQVIYNTMEETYAAILLQSLDLLGYLTHETQDLHEEGQSSEPSTFGRALQLCSVPTLSEYTVLLIELARTNAISTEPFRITTEEVSPRDTPRDIVFASRVLSIIPLNVSGPWTAPIDAELAAFSMLSRMISRSIRQLLEAITTLMFSKGRTHVPLHRIGEIQRLLPFSTPVEFGCGVLVEYMLMKDKCTLKDLEEAFPECTYLRHDLATLFYFWDLAVQVLQRIETKENFCVDQHCLSSANERMKRAQKNLNILTGVRETYY
For the molecule B4, the binding result in test [3] and in test [2] was “binds” each time.
